The results in this text go back to patent publication US20180251547A1.

Protein sequences, listed by entry. Tags and fused reporters are not part of them. Lines headed by an entry give the natural chain unless they say otherwise; changes in a name come on top.
UniProt Q8TDQ0: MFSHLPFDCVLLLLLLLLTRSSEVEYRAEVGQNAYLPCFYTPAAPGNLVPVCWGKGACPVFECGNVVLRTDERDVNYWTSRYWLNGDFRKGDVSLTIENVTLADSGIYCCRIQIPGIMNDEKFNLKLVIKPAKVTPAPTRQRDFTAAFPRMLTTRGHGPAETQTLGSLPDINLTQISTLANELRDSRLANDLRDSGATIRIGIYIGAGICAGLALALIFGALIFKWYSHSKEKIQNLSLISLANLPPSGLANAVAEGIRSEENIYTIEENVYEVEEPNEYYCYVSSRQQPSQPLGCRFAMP

The target in experiment [1] is human Tim-3 expressed on the cell surface (human) (UniProt Q8TDQ0). Nature of the experiment: flow cytometry, activated primary human CD4+ T cells expressing Tim-3. (In general: In flow cytometry, cells or beads pass a laser one at a time.)
Experiment [2] shares this target. The experiment in a line: binding to CHO cells expressing human Tim-3.

No constants are given. Whether binding was seen depends on the method and setting. Some binding calls cover weakened binding; strength is not graded here.

B1: h22E11-5-IgG-LC × h22E11-VH4-30-4 (antibody, V domains shown)
VH: QVQLQESGPGLVKPSQTLSLTCTVSGFSLTSYGVHWIRQPPGKGLEWLVVIWSDGSTTYNPSLKSRVTISKDTSKNQVSLKLSSVTAADTAVYYCARQGGYRYDDAMDYWGQGTLVTVSS
VL: EIVLTQSPGTLSLSPGERATLSCKASQSVDYDGNSYVAWYQQKPGQAPRLLIYAASNLESGIPDRFSGSGSGTDFTLTISRLEPEDFAVYYCQQSNEDPYTFGQGTKVEIK
Consider B1, for which the binding entry in experiment [1] is listed as “binds”.

B2: h22E11-VK1-39 × h22E11-VH4-30-4 (antibody, V domains shown)
VH: B1 VH
VL: DIQLTQSPSSLSASVGDRVTITCKASQSVDYDGNSYVNWYQQKPGKAPKLLIYAASNLESGVPSRFSGSGSGTDFTLTISSLQPEDFATYYCQQSNEDPYTFGQGTKVEIK
Turning to B2, the binding result in experiment [1] is reported as “binds”.

B3: mouse hybridoma clone 2D5 antibody (421.51.2.2D5.5E9) (antibody, V domains shown)
VH: EVQLQQSGPELVKPGTSMKISCRASGYPFIGYTMNWVKQSHGGNLEWIGLINPYNGITTYNQKFKGRATLSVDTSSTIAYMELLSLTSDDSAEYYCARSFFYGSSNDWLVYWGQGTLVTVSA
VL: DVLMTQTPLSLPVSLGDQASISCRSSQSIVHTNGNTYLEWYLQKPGQSPKLLIYKVSNRFSGVPDRFSGSGSGTDFTLKISRVEAEDLGVYYCFQGSHVPWTFGGGTELEIK
In the case of B3, the binding entry in experiment [2] is recorded as “binds”.
